Some of the results follow. Single values are uncertain here, since repeats match poorly.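 In a drug-repurposing library screen, luminescence reads luciferase driven by eight TEAD-binding elements, stably integrated into human kidney-derived cells. Compounds scoring over five robust Z scores above the plate mean are called hits.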
System: HEK293A TEAD-LUC reporter
Experiment: TEAD-luciferase reporter activity (YAP activation), robust Z score vs plate; higher = stronger YAP/TEAD activation
Settings: 24 h

Nc1ncnc2c1c(-c1cccc(OCc3ccccc3)c1)cn2[C@H]1C[C@@H](CN2CCC2)C1
TEAD-luciferase reporter activity (compound concentration: 200 nM): inactive: 0.607 | TEAD-luciferase reporter activity (compound concentration: 2 uM): inactive: -1.55 | TEAD-luciferase reporter activity (compound concentration: 10 uM): inactive: -3.16

Nc1cc(Cl)c(N=C2NCCN2)c(Cl)c1 [Pharmaprojects No. 1758]
TEAD-luciferase reporter activity (compound concentration: 200 nM): inactive: 1.2 | TEAD-luciferase reporter activity (compound concentration: 2 uM): inactive: 0.894 | TEAD-luciferase reporter activity (compound concentration: 10 uM): inactive: 4

COc1ccc(OCC(O)CNC(C)C)cc1 (configuration not stated)
TEAD-luciferase reporter activity (compound concentration: 200 nM): inactive: -0.875 | TEAD-luciferase reporter activity (compound concentration: 2 uM): inactive: 0.936 | TEAD-luciferase reporter activity (compound concentration: 10 uM): inactive: 1.56

CCCCCCCCCC(=O)N[C@@H](Cc1c[nH]c2ccccc12)C(=O)N[C@H](CC(N)=O)C(=O)N[C@@H](CC(=O)O)C(=O)N[C@@H]1C(=O)NCC(=O)N[C@@H](CCCN)C(=O)N[C@@H](CC(=O)O)C(=O)N[C@H](C)C(=O)N[C@@H](CC(=O)O)C(=O)NCC(=O)N[C@H](CO)C(=O)N[C@@H]([C@@H](C)CC(=O)O)C(=O)N[C@@H](CC(=O)c2ccccc2N)C(=O)O[C@@H]1C [Daptomycin]
TEAD-luciferase reporter activity (compound concentration: 200 nM): inactive: -0.554 | TEAD-luciferase reporter activity (compound concentration: 2 uM): inactive: -2.84 | TEAD-luciferase reporter activity (compound concentration: 10 uM): inactive: -0.312

Cc1ccc(Cn2c(NC3CCNCC3)nc3cccnc32)o1
TEAD-luciferase reporter activity (compound concentration: 200 nM): inactive: -0.0943 | TEAD-luciferase reporter activity (compound concentration: 2 uM): inactive: 0.925 | TEAD-luciferase reporter activity (compound concentration: 10 uM): inactive: -0.351

CC(C(=O)O)c1ccc2c(c1)oc1ccc(Cl)cc12 (configuration not stated)
TEAD-luciferase reporter activity (compound concentration: 200 nM): inactive: -0.435 | TEAD-luciferase reporter activity (compound concentration: 2 uM): inactive: -0.602 | TEAD-luciferase reporter activity (compound concentration: 10 uM): inactive: 1.01

CN(C)CCN1CCN(c2cccc(Cl)c2)C1=O
TEAD-luciferase reporter activity (compound concentration: 200 nM): inactive: 3.52 | TEAD-luciferase reporter activity (compound concentration: 2 uM): inactive: 3.25 | TEAD-luciferase reporter activity (compound concentration: 10 uM): inactive: 0.641

OCC1COC(CI)O1 (configuration not stated) [Domiodol]
TEAD-luciferase reporter activity (compound concentration: 200 nM): inactive: 0.0895 | TEAD-luciferase reporter activity (compound concentration: 2 uM): inactive: 1.08 | TEAD-luciferase reporter activity (compound concentration: 10 uM): inactive: 3.15

CCCCCCCC/C=C\CCCCCCC(O)C(=O)O (configuration not stated) [Minerval]
TEAD-luciferase reporter activity (compound concentration: 200 nM): inactive: -1.85 | TEAD-luciferase reporter activity (compound concentration: 2 uM): inactive: 0.143 | TEAD-luciferase reporter activity (compound concentration: 10 uM): inactive: 0.135

CN(C)C(=O)NC1(c2ccccc2)CCN(CCC[C@]2(c3ccc(Cl)c(Cl)c3)CCCN(C(=O)c3ccccc3)C2)CC1
TEAD-luciferase reporter activity (compound concentration: 200 nM): inactive: -1.22 | TEAD-luciferase reporter activity (compound concentration: 2 uM): inactive: 0.802 | TEAD-luciferase reporter activity (compound concentration: 10 uM): inactive: 0.781

Cc1cc(C(N)=O)ccc1-n1c(CCC(=O)O)ccc1-c1ccc(-n2ccnc2)cc1
TEAD-luciferase reporter activity (compound concentration: 200 nM): inactive: 0.127 | TEAD-luciferase reporter activity (compound concentration: 2 uM): inactive: 0.368 | TEAD-luciferase reporter activity (compound concentration: 10 uM): inactive: -1.55

O=C(Nc1nc2cccc(-c3ccc(CN4CCS(=O)(=O)CC4)cc3)n2n1)C1CC1 [Filgotinib]
TEAD-luciferase reporter activity (compound concentration: 200 nM): inactive: -2.25 | TEAD-luciferase reporter activity (compound concentration: 2 uM): inactive: 1.14 | TEAD-luciferase reporter activity (compound concentration: 10 uM): inactive: -0.311

O=C(N[C@@H](Cc1ccccc1)[C@@H](O)C(=O)N1C[C@@H](O)[C@@H](O)C1)c1cc2cc(Cl)ccc2[nH]1 [ingliforib]
TEAD-luciferase reporter activity (compound concentration: 200 nM): inactive: 0.274 | TEAD-luciferase reporter activity (compound concentration: 2 uM): inactive: 0.616 | TEAD-luciferase reporter activity (compound concentration: 10 uM): inactive: -1.47

CNS(=O)(=O)c1cc(OC)c(OC)c(C(=O)NCC2CCCN2C)c1 (configuration not stated) [sulverapride]
TEAD-luciferase reporter activity (compound concentration: 200 nM): inactive: -1.12 | TEAD-luciferase reporter activity (compound concentration: 2 uM): inactive: 0.0384 | TEAD-luciferase reporter activity (compound concentration: 10 uM): inactive: -0.673

CC(=O)c1ccc2c(c1)[C@H](NC(=O)c1ccc(F)cc1)[C@@H](O)C(C)(C)O2 [Carabersat]
TEAD-luciferase reporter activity (compound concentration: 200 nM): inactive: -1.52 | TEAD-luciferase reporter activity (compound concentration: 2 uM): inactive: 0.112 | TEAD-luciferase reporter activity (compound concentration: 10 uM): inactive: -1.57

CN[C@@H]1CCN(c2cc(NCC3CC3)nc(N)n2)C1
TEAD-luciferase reporter activity (compound concentration: 200 nM): inactive: 0.42 | TEAD-luciferase reporter activity (compound concentration: 2 uM): inactive: -1.07 | TEAD-luciferase reporter activity (compound concentration: 10 uM): inactive: 0.76

Cn1cc(C(=O)NCc2ccc(Cl)cc2)c(=O)c2cc(CN3CCOCC3)ccc21
TEAD-luciferase reporter activity (compound concentration: 200 nM): inactive: 0.796 | TEAD-luciferase reporter activity (compound concentration: 2 uM): inactive: -0.596 | TEAD-luciferase reporter activity (compound concentration: 10 uM): inactive: -0.634

Cc1nccn1-c1ccc(Sc2cccc(C3(C(N)=O)CCOCC3)c2)cc1
TEAD-luciferase reporter activity (compound concentration: 200 nM): inactive: -0.904 | TEAD-luciferase reporter activity (compound concentration: 2 uM): inactive: -1.96 | TEAD-luciferase reporter activity (compound concentration: 10 uM): inactive: 0.346

NC(=O)N1C(=O)/C(=C(\O)c2cccs2)c2cc(Cl)ccc21 [Tenidap sodium]
TEAD-luciferase reporter activity (compound concentration: 200 nM): inactive: 0.838 | TEAD-luciferase reporter activity (compound concentration: 2 uM): inactive: 2.9 | TEAD-luciferase reporter activity (compound concentration: 10 uM): inactive: -0.0624

Cc1ccncc1Nc1ncccc1C(=O)Nc1ccc(C2(C#N)CCCC2)cc1
TEAD-luciferase reporter activity (compound concentration: 200 nM): inactive: -0.972 | TEAD-luciferase reporter activity (compound concentration: 2 uM): inactive: 0.0811 | TEAD-luciferase reporter activity (compound concentration: 10 uM): inactive: -0.0374

CCn1ccc(=O)c(O)c1C
TEAD-luciferase reporter activity (compound concentration: 200 nM): inactive: -1.19 | TEAD-luciferase reporter activity (compound concentration: 2 uM): inactive: -1.56 | TEAD-luciferase reporter activity (compound concentration: 10 uM): inactive: -0.294

CC(=O)O[C@H]1C(=O)[C@@]2(C)[C@H]([C@H](OC(=O)c3ccccc3)[C@]3(O)C[C@H](OC(=O)[C@H](O)[C@@H](NC(=O)c4ccccc4)c4ccccc4)C(C)=C1C3(C)C)[C@]1(OC(C)=O)CO[C@@H]1C[C@@H]2O [paclitaxel, Shanghai Fudan-Zhangjiang]
TEAD-luciferase reporter activity (compound concentration: 200 nM): inactive: -1.37 | TEAD-luciferase reporter activity (compound concentration: 2 uM): inactive: -0.597 | TEAD-luciferase reporter activity (compound concentration: 10 uM): inactive: -2.4

CO/N=C(/N)c1ccc(CNC(=O)[C@@H]2CCN2C(=O)C(O)c2cc(Cl)cc(OC(F)F)c2)cc1 (some centres not stated)
TEAD-luciferase reporter activity (compound concentration: 200 nM): inactive: 0.263 | TEAD-luciferase reporter activity (compound concentration: 2 uM): inactive: 0.264 | TEAD-luciferase reporter activity (compound concentration: 10 uM): inactive: -0.263

Cc1cc(O[C@@H](CCC(F)(F)F)c2ccc(C(=O)NCCC(=O)O)cc2)cc(C)c1-c1ccc(C(C)(C)C)cc1
TEAD-luciferase reporter activity (compound concentration: 200 nM): inactive: 0.667 | TEAD-luciferase reporter activity (compound concentration: 2 uM): inactive: 1.18 | TEAD-luciferase reporter activity (compound concentration: 10 uM): inactive: 0.981

Cc1nc(NS(=O)(=O)c2ccc(N)cc2)oc1C
TEAD-luciferase reporter activity (compound concentration: 200 nM): inactive: -1.88 | TEAD-luciferase reporter activity (compound concentration: 2 uM): inactive: 0.201 | TEAD-luciferase reporter activity (compound concentration: 10 uM): inactive: 2.4

CC(C)CNC(=O)[C@H]1C[C@@](F)(c2ccc(CN3CCCC3)c(F)c2)C1
TEAD-luciferase reporter activity (compound concentration: 200 nM): inactive: -0.654 | TEAD-luciferase reporter activity (compound concentration: 2 uM): inactive: 3.97 | TEAD-luciferase reporter activity (compound concentration: 10 uM): inactive: 2.09

CC(C)(C)S(=O)(=O)c1cc2c(Nc3ccc4scnc4c3)ncnc2cc1OCCO [RIP2 kinase inhibitor 1]
TEAD-luciferase reporter activity (compound concentration: 200 nM): inactive: 1.5 | TEAD-luciferase reporter activity (compound concentration: 10 uM): inactive: 0.718

CC(=O)[C@@]1(O)CC[C@H]2[C@@H]3C=C(Cl)C4=CC(=O)CC[C@]4(C)[C@H]3CC[C@@]21C [Chlormadi]
TEAD-luciferase reporter activity (compound concentration: 200 nM): inactive: -0.698 | TEAD-luciferase reporter activity (compound concentration: 2 uM): inactive: 0.511 | TEAD-luciferase reporter activity (compound concentration: 10 uM): inactive: 1.3

CC(C)[C@H](NC(=O)Cn1c(-c2ccccc2)ncc(N)c1=O)C(=O)c1nnc(C(C)(C)C)o1 [Freselestat]
TEAD-luciferase reporter activity (compound concentration: 200 nM): inactive: -1.92 | TEAD-luciferase reporter activity (compound concentration: 2 uM): inactive: -0.233 | TEAD-luciferase reporter activity (compound concentration: 10 uM): inactive: 1.96

CC(C)[C@](O)(c1ccc2cc(OC(F)F)c(OC(F)F)cc2c1)c1c[nH]nn1
TEAD-luciferase reporter activity (compound concentration: 200 nM): inactive: -0.328 | TEAD-luciferase reporter activity (compound concentration: 2 uM): inactive: 0.514 | TEAD-luciferase reporter activity (compound concentration: 10 uM): inactive: -0.248

Cc1cccn2c(=O)c(-c3nnn[nH]3)cnc12 [Pemirolast potassium]
TEAD-luciferase reporter activity (compound concentration: 200 nM): inactive: -0.444 | TEAD-luciferase reporter activity (compound concentration: 2 uM): inactive: 1.4 | TEAD-luciferase reporter activity (compound concentration: 10 uM): inactive: 1.25
